Data taken from article PMC7819943, “Rice protein-binding microarrays: a tool to detect cis-acting elements near promoter regions in rice”.
The list shows a part of the results.

Each sequence was assayed against T1, OsSMF1 (Oryza sativa, UniProt Q6ZLB0 1-436) (assay: protein-binding microarray (RPBM); PBS, 2% BSA, 51.3 ng/ul salmon testes DNA, 50 uM zinc acetate, 200 nM TF, 25 C, 1 h; high values mean tight binding). Conditions: protein: recombinant; tags: N-terminal polyhistidine and DsRed monomer fusion (pET32a); chain copies: 2; label: CyDye5-dUTP incorporated in the synthesized complementary strand; 3' TTTTT single-stranded linker to array surface; dsDNA, one strand shown.
T1 sequence: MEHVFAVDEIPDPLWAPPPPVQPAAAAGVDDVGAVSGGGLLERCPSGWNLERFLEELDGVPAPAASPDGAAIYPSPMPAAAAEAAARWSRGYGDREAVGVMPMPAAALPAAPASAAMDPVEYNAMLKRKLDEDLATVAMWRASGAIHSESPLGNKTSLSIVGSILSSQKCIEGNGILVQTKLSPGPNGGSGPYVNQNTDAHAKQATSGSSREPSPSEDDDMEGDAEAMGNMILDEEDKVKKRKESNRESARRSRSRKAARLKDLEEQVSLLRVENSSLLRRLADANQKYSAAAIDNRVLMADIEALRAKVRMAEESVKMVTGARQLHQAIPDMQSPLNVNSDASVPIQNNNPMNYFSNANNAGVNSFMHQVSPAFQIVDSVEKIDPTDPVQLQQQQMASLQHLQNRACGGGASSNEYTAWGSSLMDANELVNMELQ
Method in brief: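 In PBS with 2% BSA, salmon testes DNA and 50 µM zinc acetate, 200 nM protein was incubated on a custom Agilent array at 25 °C for 1 h and then washed off. The array had been made double-stranded by primer extension with Cy5-dUTP and blocked with 2% BSA. The proteins were transcription factors fused N-terminally to polyhistidine and DsRed, expressed in E. coli BL21-CodonPlus and purified on Ni–NTA. The binding signal is per-feature fluorescence intensity (arbitrary units) from an Axon 4000B scanner.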
With “CCACTGCTTCGTCATCGTCTACGCCCTCCTCATCGTCCACCGGAGTCACCTAGTGCAG” the binding signal was 7240 fluorescence intensity (a.u.). For “ACCCTTAATCTTTTAAGTTGTACTCTCTATGGTCATAAATCGGAGTCACCTAGTGCAG”, the binding signal was 12800 fluorescence intensity (a.u.). For “CGAAGCCCACGCAGATGCTGACGCAGCGCAGGCGTGGCGACGGAGTCACCTAGTGCAG”, the binding signal was 8280 fluorescence intensity (a.u.). For “CTTGCTCGGTTTCTTTCTCCCGCGGACACTGAAACCCAACCGGAGTCACCTAGTGCAG”, the binding signal was 3310 fluorescence intensity (a.u.). In the case of “CCTGTTACCCCAAACGCGTTACCCCAAGCCAATAGACGAACGGAGTCACCTAGTGCAG”, the binding signal was 3220 fluorescence intensity (a.u.). With “CCTCATAGTCGCAGCCGCCACGCACAGGCAGAAGAGCTTGCGGAGTCACCTAGTGCAG” the binding signal was 3340 fluorescence intensity (a.u.). For “ACTTTGGTCAATCCTCAGCGTGGCACATGCCTTCAATTGGCGGAGTCACCTAGTGCAG”, the binding signal was 3630 fluorescence intensity (a.u.). For “GGGGCACGAGCATGGCGGAGGACACATCAGCAGTCGATGGCGGAGTCACCTAGTGCAG”, the binding signal was 9360 fluorescence intensity (a.u.). “ATGGGCCCCGCTACATTGATTGGGCCACGTTGGGTCTTGGCGGAGTCACCTAGTGCAG” was tested, and the binding signal was 5830 fluorescence intensity (a.u.). With “GTCCATCGCCGCGACCCACGCCACCACCGTTACGGACATCCGGAGTCACCTAGTGCAG” the binding signal was 3370 fluorescence intensity (a.u.). “AGGAGGAGGAGGGAGAAAGGTGATGTCAGCGGAGGAGGAGCGGAGTCACCTAGTGCAG” was tested, and the binding signal was 4140 fluorescence intensity (a.u.). In the case of “AACAGGCATCCTGATGTTGTAACTTATACTGTTGTTGTTGCGGAGTCACCTAGTGCAG”, the binding signal was 4250 fluorescence intensity (a.u.). “TAGCCAGGAGGGAGGTGGCAAAACAGAATGATGGGAGGGACGGAGTCACCTAGTGCAG” was tested, and the binding signal was 3220 fluorescence intensity (a.u.). For “TGCGGCGTGACGCGCTCGTTCAAACCTGCAATAAATGCGGCGGAGTCACCTAGTGCAG”, the binding signal was 4750 fluorescence intensity (a.u.). In the case of “CCTTGTACTGGTGCGTGTCACATCCTAATATAATATTTGTCGGAGTCACCTAGTGCAG”, the binding signal was 3990 fluorescence intensity (a.u.). In the case of “AGATAAAATGAGTAATCATCTGTCTAACATGTCACACCAGCGGAGTCACCTAGTGCAG”, the binding signal was 3140 fluorescence intensity (a.u.). In the case of “GTCAAGCGCCGCCTCGCCGCGTCGGGCCGCCCCGACGACGCGGAGTCACCTAGTGCAG”, the binding signal was 3700 fluorescence intensity (a.u.). “ATATGCATGAGTGTGGTGTGTACATATGCATCATCCGTGTCGGAGTCACCTAGTGCAG” was tested, and the binding signal was 4580 fluorescence intensity (a.u.). With “TCGTTTCATCCTGCTGTCACCACGTAGTAACTCGTTTTCCCGGAGTCACCTAGTGCAG” the binding signal was 3390 fluorescence intensity (a.u.). In the case of “CTCCAACCACCCCTAGACACGTGTCCAGAGAATCTCTAACCGGAGTCACCTAGTGCAG”, the binding signal was 9780 fluorescence intensity (a.u.). In the case of “GATTATTGAGTCATATTACTATAAACTTGATTGTTATAATCGGAGTCACCTAGTGCAG”, the binding signal was 3420 fluorescence intensity (a.u.). For “CTATGGAACGAAATACTGACGTGTCAGGGATGCATGTGAACGGAGTCACCTAGTGCAG”, the binding signal was 6700 fluorescence intensity (a.u.). In the case of “TTGGCTCCCTCGTCGTCTCCGTTACCACGCGCACACTGCCCGGAGTCACCTAGTGCAG”, the binding signal was 3910 fluorescence intensity (a.u.). With “TCAAGCATTGTGGGTCAATGGACCACAAGAAGTAAAACGTCGGAGTCACCTAGTGCAG” the binding signal was 22000 fluorescence intensity (a.u.). “CGCCATTGTGCGAGGCACGAGTGCACATCGATCTCCTATACGGAGTCACCTAGTGCAG” was tested, and the binding signal was 3380 fluorescence intensity (a.u.). For “CTCCTCCCTGCCGCTCGGTGACACTCCCATCTCTTGCGTGCGGAGTCACCTAGTGCAG”, the binding signal was 3590 fluorescence intensity (a.u.). In the case of “CATTTTCTCCAGGCCCATTAAGCCCATAGGTCATCGTATCCGGAGTCACCTAGTGCAG”, the binding signal was 3390 fluorescence intensity (a.u.). “GCATGTTTTGAGTTTGAAAGTTTTAAATTTTGAGTTGAAACGGAGTCACCTAGTGCAG” was tested, and the binding signal was 50200 fluorescence intensity (a.u.). “CCGGACACGGACAGTCAGCTGGAAGGTCATCATGATTCATCGGAGTCACCTAGTGCAG” was tested, and the binding signal was 18200 fluorescence intensity (a.u.). “GAGAGCGGTATTGCGCGGATGGCATACTTAAGCAAGTTGACGGAGTCACCTAGTGCAG” was tested, and the binding signal was 31500 fluorescence intensity (a.u.). “TGCCCTCCCTCCGCAGCCGTACACGTGTCCCGATCCCCAGCGGAGTCACCTAGTGCAG” was tested, and the binding signal was 5860 fluorescence intensity (a.u.). In the case of “GCTTCAAATTTGAGAGTATGACATGTGGGTCCTAAGGCTACGGAGTCACCTAGTGCAG”, the binding signal was 3520 fluorescence intensity (a.u.). With “ATATGGTTTCAAATGACATCAATCTGAACTAGCCCGTAGTCGGAGTCACCTAGTGCAG” the binding signal was 3250 fluorescence intensity (a.u.). With “AGATGGCATTCCCAGTTTAGTCATGTACACCGTAGCCGTACGGAGTCACCTAGTGCAG” the binding signal was 3440 fluorescence intensity (a.u.). “GCGTCTGGGGCCTCGGGCGGCGCGCGCGGGGAGGGGCGTGCGGAGTCACCTAGTGCAG” was tested, and the binding signal was 3280 fluorescence intensity (a.u.). “GATAATCATTTTGTTTCCATGTCATGTGAAATTTATAATTCGGAGTCACCTAGTGCAG” was tested, and the binding signal was 3710 fluorescence intensity (a.u.). In the case of “TCGCCTGCGGTCGTGCGCGCGTGGCGTACGTGCGGCCACCCGGAGTCACCTAGTGCAG”, the binding signal was 4480 fluorescence intensity (a.u.). With “CTTGGCCCAGAAACAACACACACACTCAAATCTGGATCCACGGAGTCACCTAGTGCAG” the binding signal was 3790 fluorescence intensity (a.u.). With “AAATGAAATAAACATGTGAGTTGCTGCTGCGTACGTGTTGCGGAGTCACCTAGTGCAG” the binding signal was 4400 fluorescence intensity (a.u.). In the case of “ACAATATAGGGTGTGACAGTTTGAAACGACGCAAATCGAGCGGAGTCACCTAGTGCAG”, the binding signal was 28700 fluorescence intensity (a.u.). In the case of “CCCACCACCATCCATCCATGTGTCACCCCTCCTCCGCTTGCGGAGTCACCTAGTGCAG”, the binding signal was 3580 fluorescence intensity (a.u.). “ATATATTGACAAGGCAATGACATAGATAGCTAGACATATCCGGAGTCACCTAGTGCAG” was tested, and the binding signal was 3190 fluorescence intensity (a.u.).
